Record: PubChem BioAssay AID1159578 (Peter MacCallum Cancer Centre, 2015)

Test: 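siRNA pools altering how lymphatic endothelial cells close a scratch wound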 (primary screen)
System: human lymphatic endothelial cells
Reagent: siRNA pool against human genes, 40 nM
Time to read-out: 48 h after transfection
Detection: 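High-content imaging of dye-stained cells in a scratch assay measures filled wound area and nuclei per well; duplicate means given as ratio to mock and robust z-score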
Direction: migration robust z-score: higher = faster migration into the scratch; migration relative to mock: higher = more scratch area covered than mock; nuclei per well: higher = more cells in the well
Hit rule: 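Migration changed when robust z exceeds 2 or falls below -2 and mean nuclei number is at least 3300; otherwise not called changed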
Calls: active = migration changed; inactive = no migration change, or too few cells
This is one part, drawn at random, of about 18,000 reagents. About 1,030 of them (5.7%) count as active. 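Inactive calls also include pools with fewer than 3300 nuclei, whose migration was not assessed.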 Raw values vary from plate to plate and are shown uncorrected. A number with no mark means an inactive call.

migration robust z-score	migration class with cell-count check	migration relative to mock	nuclei per well, duplicate mean	gene symbol	PubChem SID
-0.83	migration z between -2 and 2; enough cells	0.64	5760	TMT1B (thiol methyltransferase 1B)	SID255363966
-0.34	migration z between -2 and 2; enough cells	0.79	4912	SUGT1P4-STRA6LP-CCDC180 (SUGT1P4-STRA6LP-CCDC180 readthrough)	SID255359529
-0.62	migration z between -2 and 2; enough cells	0.68	5530	FOXI1 (forkhead box I1)	SID255349705
0.18	migration z between -2 and 2; enough cells	0.93	5954	RHPN1 (rhophilin Rho GTPase binding protein 1)	SID255362256
-0.52	migration z between -2 and 2; enough cells	0.74	7054	TBC1D23 (TBC1 domain family member 23)	SID255358850
0.08	migration z between -2 and 2; enough cells	0.82	4876	RNF41 (ring finger protein 41)	SID255354881
-0.29	migration z between -2 and 2; enough cells	0.75	4240	YAP1 (Yes1 associated transcriptional regulator)	SID255355059
0.16	migration z between -2 and 2; enough cells	0.93	4786	FNDC5 (fibronectin type III domain containing 5)	SID255364410
-1.17	migration z between -2 and 2; enough cells	0.58	6486	PRPF19 (pre-mRNA processing factor 19)	SID255357040
0.28	migration z between -2 and 2; enough cells	0.96	5490	LAMC3 (laminin subunit gamma 3)	SID255354992
0.6	migration z between -2 and 2; enough cells	1.04	5093	SLC35D2	SID255355549
1.38	migration z between -2 and 2; enough cells	1.07	6148	HPGDS (hematopoietic prostaglandin D synthase)	SID255357023
-1.35	migration z between -2 and 2; enough cells	0.54	5780	TBCK (TBC1 domain containing kinase)	SID255362088
-0.7	migration z between -2 and 2; enough cells	0.7	5316	FAM9B (family with sequence similarity 9 member B)	SID255363935
0.47	migration z between -2 and 2; enough cells	0.9	5410	ACO1 (aconitase 1)	SID255348144
-0.54	migration z between -2 and 2; enough cells	0.74	5476	CD300A (CD300a molecule)	SID255355742
-1.48	migration z between -2 and 2; enough cells	0.52	4906	FOSL2 (FOS like 2, AP-1 transcription factor subunit)	SID255349744
1.08	migration z between -2 and 2; enough cells	1.17	5686	ARHGEF15 (Rho guanine nucleotide exchange factor 15)	SID255355856
1.15	migration z between -2 and 2; enough cells	1.18	5816	PDLIM5 (PDZ and LIM domain 5)	SID255355223
0.42	migration z between -2 and 2; enough cells	1	5674	GRXCR2 (glutaredoxin and cysteine rich domain containing 2)	SID255366077
-0.88	migration z between -2 and 2; enough cells	0.66	5469	PRPH (peripherin)	SID255351842
-0.96	migration z between -2 and 2; enough cells	0.64	5466	MYEF2 (myelin expression factor 2)	SID255357358
2.39 (active)	migration z above 2; enough cells	1.26	6376	SLC3A2	SID255352451

2 entries from above, reduced to “migration robust z-score”:
FOSL2 (FOS like 2, AP-1 transcription factor subunit) [SID255349744]	-1.48
ARHGEF15 (Rho guanine nucleotide exchange factor 15) [SID255355856]	1.08
